In patent US7253198B2, “Hydroxyethylamine derivatives for the treatment of Alzheimer's disease” (Glaxo Group Limited, priority 2002, dated 2007):
Some entries share one result that the patent states for a list of compounds. Some ranges recur; such a range may be that of the whole group of compounds.

The chains behind the UniProt entries cited, without tags or fusion partners. Residues count along the entry.
UniProt P07339, 65-412, species assumed: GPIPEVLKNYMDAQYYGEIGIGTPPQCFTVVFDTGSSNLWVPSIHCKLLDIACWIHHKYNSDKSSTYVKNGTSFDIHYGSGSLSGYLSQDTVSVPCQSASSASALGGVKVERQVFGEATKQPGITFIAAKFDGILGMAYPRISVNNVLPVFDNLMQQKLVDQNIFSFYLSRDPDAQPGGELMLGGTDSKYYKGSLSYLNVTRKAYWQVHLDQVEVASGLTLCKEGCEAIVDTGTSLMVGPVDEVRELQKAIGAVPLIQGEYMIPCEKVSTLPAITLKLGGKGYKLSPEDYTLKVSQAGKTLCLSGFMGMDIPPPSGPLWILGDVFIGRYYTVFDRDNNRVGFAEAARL

Target: Cathepsin D (Homo sapiens, UniProt P07339)
Assay: Cathepsin D Inhibitory Assay
Assay type: biochemical
Conditions: Assay (II), FAM-SEVNLDAEFK-TAMRA substrate, pH 4.5; read-out: inhibition (CatD)

Question: For `C[C@H](NC[C@@H](O)[C@H](Cc1ccccc1)NC(=O)c1cc(C2CCCC2)cc(N2CCCC2=O)c1)C(=O)NC1CCCCC1` [Example E12, N-[(1S,2R)-1-Benzyl-3-((S)-1-cyclohexylcarbamoylethylamino)-2-hydroxypropyl]-3-cyclopentyl-5-(2-oxopyrrolidin-1-yl)benzamide], which IC50 is on record?
Answer: 0.1 to 10 µM

Question: `CCCCCNc1cc(C(=O)N[C@@H](Cc2ccccc2)[C@H](O)CN[C@@H](C)C(=O)NC2CCCCC2)cc(N2CCCC2=O)c1` [Example E54, N-[(1S,2R)-1-Benzyl-3-((S)-1-cyclohexylcarbamoylethylamino)-2-hydroxypropyl]-3-(2-oxopyrrolidin-1-yl)-5-pentylaminobenzamide] was tested. Which IC50 did it give?
Answer: 0.1 to 10 µM

Question: For `CCCC[C@H](NC[C@@H](O)[C@H](Cc1ccccc1)NC(=O)c1cc(OC(C)C)cc(N2CCCC2=O)c1)C(=O)NCC(C)C` [Example E179, N-[(1S,2R)-1-Benzyl-2-hydroxy-3-((S)-1-isobutylcarbamoyl-pentylamino)-propyl]-3-isopropoxy-5-(2-oxopyrrolidin-1-yl)benzamide], which IC50 is on record?
Answer: 0.1 to 10 µM

Question: With `CCC(CC)Nc1cc(C(=O)N[C@@H](Cc2ccccc2)[C@H](O)CN[C@@H](C)C(=O)NC2CCCCC2)cc(N2CCCC2=O)c1` [Example E55, N-[(1S,2R)-1-Benzyl-3-((S)-1-cyclohexylcarbamoylethylamino)-2-hydroxypropyl]-3-(1-ethylpropylamino)-5-(2-oxopyrrolidin-1-yl)benzamide] as the compound, how does the IC50 read?
Answer: 0.1 to 10 µM

Question: `CC(C)CCCC(C)NC[C@@H](O)[C@H](Cc1ccccc1)NC(=O)c1cc(NC(C)C)cc(N2CCCC2=O)c1` (stereo partly drawn) [Example E60, N-[(1S,2R)-1-Benzyl-3-(1,5-dimethylhexylamino)-2-hydroxypropyl]-3-isopropylamino-5-(2-oxopyrrolidin-1-yl)benzamide] was tested. Which IC50 did it give?
Answer: 0.1 to 10 µM

Question: With `O=C(NC(Cc1ccccc1)C(O)CNCc1cccc(C(F)(F)F)c1)c1cc(C2CCCC2)cc(N2CCCC2=O)c1` (stereo not shown) [Example E22, N-[1-Benzyl-2-hydroxy-3-(3-trifluoromethylbenzylamino)propyl]-3-cyclopentyl-5-(2-oxopyrrolidin-1-yl)benzamide] as the compound, how does the IC50 read?
Answer: 0.1 to 10 µM

Question: For `CCCCNc1cc(C(=O)N[C@@H](Cc2ccccc2)[C@H](O)CN[C@@H](C)C(=O)NC2CCCCC2)cc(N2CCCC2=O)c1` [Example E56, N-[(1S,2R)-1-Benzyl-3-((S)-1-cyclohexylcarbamoylethylamino)-2-hydroxypropyl]-3-butylamino-5-(2-oxopyrrolidin-1-yl)benzamide], which IC50 is on record?
Answer: 0.1 to 10 µM
